Taken from: PubChem BioAssay AID504774 (Drosophila RNAi Screening Center, 2011)
The screen tested about 23,000 reagents; below is an unselected part of those that have a named target and a result. 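Values are quantile-normalised luminescence on an arbitrary scale; higher means more cells surviving MMS.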 Further read-outs or replicates are left out here.

Aim: 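Knock-downs that shift viability of MMS-exposed cells relative to untreated ones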 (primary screen)
Cell system: Drosophila Kc167 cells
Reagent: long dsRNA against Drosophila genes, about 0.25 µg dsRNA per well
Timing: about 6 days: 3 days knock-down, then 3 days with or without MMS
Conditions: methyl methanesulphonate 0.004% (w/v) for 3 days after knock-down
Measurement: 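Viability in wells given MMS, read as ATP luminescence, normalised by quantiles plate by plate and averaged across replicates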
Direction: mean viability with MMS: higher = more surviving cells after MMS

With AstCC [SID104182196], how do the results read?
mean viability with MMS: 3.55e6

With EndoGI [SID104181756], how do the results read?
mean viability with MMS: 3.44e6

For Josd [SID104198115], what does the deposit list?
mean viability with MMS: 3.53e6

Which result is listed for CG6834 [SID104195917]?
mean viability with MMS: 3.52e6

For usp [SID104198639], what does the deposit list?
mean viability with MMS: 3.37e6

How did the screen score CG16798 [SID104182309]?
mean viability with MMS: 3.59e6

What did the screen give for Nelf-A [SID104195695]?
mean viability with MMS: 3.70e6

What did the screen give for CG42633 [SID104195853]?
mean viability with MMS: 3.47e6

Which result is listed for Mst98Cb [SID104196542]?
mean viability with MMS: 3.66e6

For Mst98Cb [SID104201948], what does the deposit list?
mean viability with MMS: 3.58e6

Which result is listed for CG11885 [SID104180121]?
mean viability with MMS: 1.79e6

How did the screen score CG5674 [SID104182666]?
mean viability with MMS: 2.85e6

What did the screen give for CG5674 [SID104202533]?
mean viability with MMS: 3.78e6

With pelo [SID104183380], what does the deposit list?
mean viability with MMS: 3.65e6

For CG10680 [SID104181885], how do the results read?
mean viability with MMS: 3.68e6

What did the screen give for CG4563 [SID104184266]?
mean viability with MMS: 3.58e6

With SCCRO3 [SID104186151], how do the results read?
mean viability with MMS: 3.45e6

For MCU [SID104190131], what was measured?
mean viability with MMS: 3.47e6

How did the screen score GstD6 [SID104196479]?
mean viability with MMS: 3.56e6

How did the screen score CG10514 [SID104194041]?
mean viability with MMS: 3.43e6

With CG7248 [SID104190580], what does the deposit list?
mean viability with MMS: 3.79e6

How did the screen score Hsp70Bc [SID104195845]?
mean viability with MMS: 3.42e6

What is on record for E2f1 [SID104196447]?
mean viability with MMS: 3.42e6

For RpL8 [SID104188324], how do the results read?
mean viability with MMS: 3.02e6

With RpL8 [SID104188487], what was measured?
mean viability with MMS: 2.94e6

Which result is listed for iotaTry [SID104187426]?
mean viability with MMS: 3.48e6

With RpS13 [SID104183211], what was measured?
mean viability with MMS: 2.66e6

With CG12923 [SID104186029], what was measured?
mean viability with MMS: 3.63e6

With CG11570 [SID104189636], how do the results read?
mean viability with MMS: 3.69e6

With CG18258 [SID104199590], what was measured?
mean viability with MMS: 3.39e6

What did the screen give for CG30053 [SID104187052]?
mean viability with MMS: 3.52e6

How did the screen score CG14817 [SID104198339]?
mean viability with MMS: 3.55e6

What did the screen give for CG7202 [SID104191610]?
mean viability with MMS: 3.83e6

What did the screen give for Megf8 [SID104182850]?
mean viability with MMS: 3.68e6

What is on record for Mrtf [SID104188055]?
mean viability with MMS: 3.09e6

With Mrtf [SID104188202], what does the deposit list?
mean viability with MMS: 3.29e6

With Mrtf [SID104188203], what was measured?
mean viability with MMS: 3.53e6

Which result is listed for Mrtf [SID104202551]?
mean viability with MMS: 3.73e6
